No constants are given. Whether binding was seen depends on the method and setting. Binding seen in cells or lysates may run through a third protein. Some entries that bind do so weakly or less than the wild type. For part of these data: Tags and fused reporters may be left off the sequences shown.
Tests used:
Assay in all cases: pull-down
His-P1 (PIH1D1) (human) = His-P1 (PIH1D1) (human) (UniProt Q9NWS0)
[1] = molecular target: T1, His-S1 (full-length SPAG1) (human) (UniProt Q07617)
T1 sequence: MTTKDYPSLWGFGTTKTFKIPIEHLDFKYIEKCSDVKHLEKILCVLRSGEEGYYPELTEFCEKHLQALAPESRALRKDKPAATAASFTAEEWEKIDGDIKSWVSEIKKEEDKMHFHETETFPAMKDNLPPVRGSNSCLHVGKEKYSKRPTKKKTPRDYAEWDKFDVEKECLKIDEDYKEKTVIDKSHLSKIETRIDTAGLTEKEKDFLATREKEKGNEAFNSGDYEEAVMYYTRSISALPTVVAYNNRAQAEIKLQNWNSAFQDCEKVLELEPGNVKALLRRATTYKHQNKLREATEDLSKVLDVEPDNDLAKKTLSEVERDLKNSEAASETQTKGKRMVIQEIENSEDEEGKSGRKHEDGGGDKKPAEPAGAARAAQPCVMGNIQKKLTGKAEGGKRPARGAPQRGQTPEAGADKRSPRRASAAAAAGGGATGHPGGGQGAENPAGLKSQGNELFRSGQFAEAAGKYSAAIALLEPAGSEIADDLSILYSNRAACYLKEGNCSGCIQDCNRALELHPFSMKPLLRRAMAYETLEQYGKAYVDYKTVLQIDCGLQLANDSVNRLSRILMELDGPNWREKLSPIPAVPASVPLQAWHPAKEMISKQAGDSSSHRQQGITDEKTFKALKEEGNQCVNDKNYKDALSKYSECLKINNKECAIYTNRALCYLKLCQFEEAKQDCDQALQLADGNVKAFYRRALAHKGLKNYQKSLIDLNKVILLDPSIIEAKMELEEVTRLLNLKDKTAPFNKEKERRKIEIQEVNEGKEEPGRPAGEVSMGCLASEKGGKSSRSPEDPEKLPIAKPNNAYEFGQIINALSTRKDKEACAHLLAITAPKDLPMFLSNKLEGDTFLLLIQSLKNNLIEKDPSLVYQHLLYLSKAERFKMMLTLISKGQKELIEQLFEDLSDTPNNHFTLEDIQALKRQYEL

Chains of the proteins cited; added tags and fusions are not shown. Lines headed by an entry give the natural chain unless they say otherwise; changes in a name come on top. Residues count along the entry.
UniProt Q9NWS0: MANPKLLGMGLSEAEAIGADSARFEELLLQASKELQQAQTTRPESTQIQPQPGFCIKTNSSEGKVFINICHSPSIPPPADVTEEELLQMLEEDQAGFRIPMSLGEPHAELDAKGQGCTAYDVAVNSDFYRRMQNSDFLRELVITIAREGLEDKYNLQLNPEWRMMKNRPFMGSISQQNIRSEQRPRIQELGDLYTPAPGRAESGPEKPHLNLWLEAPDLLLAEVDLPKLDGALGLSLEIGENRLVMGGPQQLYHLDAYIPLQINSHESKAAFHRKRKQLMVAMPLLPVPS
UniProt Q9H6T3, residues 396-455: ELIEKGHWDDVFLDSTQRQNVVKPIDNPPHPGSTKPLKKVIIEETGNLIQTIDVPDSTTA
UniProt Q9Y265: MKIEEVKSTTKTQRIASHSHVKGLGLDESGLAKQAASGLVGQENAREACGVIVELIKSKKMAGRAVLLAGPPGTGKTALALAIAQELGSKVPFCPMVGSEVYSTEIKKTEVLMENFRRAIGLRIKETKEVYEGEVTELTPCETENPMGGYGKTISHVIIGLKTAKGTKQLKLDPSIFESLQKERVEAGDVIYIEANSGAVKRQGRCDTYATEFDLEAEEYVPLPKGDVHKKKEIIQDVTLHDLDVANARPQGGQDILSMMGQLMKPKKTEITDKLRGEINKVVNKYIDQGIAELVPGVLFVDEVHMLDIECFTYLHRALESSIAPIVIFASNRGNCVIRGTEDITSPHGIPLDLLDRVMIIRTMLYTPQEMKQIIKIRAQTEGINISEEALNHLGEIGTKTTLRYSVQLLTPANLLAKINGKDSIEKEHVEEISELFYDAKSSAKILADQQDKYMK
UniProt Q9Y230: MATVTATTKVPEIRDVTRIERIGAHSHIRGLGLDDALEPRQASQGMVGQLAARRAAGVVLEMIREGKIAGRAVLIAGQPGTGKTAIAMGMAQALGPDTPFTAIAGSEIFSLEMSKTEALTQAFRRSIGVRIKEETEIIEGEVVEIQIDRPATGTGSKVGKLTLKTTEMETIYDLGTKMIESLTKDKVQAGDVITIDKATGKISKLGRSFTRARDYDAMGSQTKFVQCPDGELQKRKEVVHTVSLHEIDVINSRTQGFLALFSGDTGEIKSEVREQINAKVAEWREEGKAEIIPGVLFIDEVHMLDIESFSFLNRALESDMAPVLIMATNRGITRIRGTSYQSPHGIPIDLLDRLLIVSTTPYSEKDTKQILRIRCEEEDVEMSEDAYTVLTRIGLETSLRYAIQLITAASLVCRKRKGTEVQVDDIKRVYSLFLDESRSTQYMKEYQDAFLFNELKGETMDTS

[2] = molecular target: T2, His-S1_(796-926) (His-S1_C), C-terminal domain of SPAG1 (human) (UniProt Q07617)
T2 sequence: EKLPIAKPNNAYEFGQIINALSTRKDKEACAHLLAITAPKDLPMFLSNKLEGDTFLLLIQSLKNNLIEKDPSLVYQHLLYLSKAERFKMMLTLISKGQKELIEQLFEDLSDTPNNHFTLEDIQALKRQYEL

| Substance | binding (His-P1 (PIH1D1) (human)) | binding [1] | binding [2] |
| --- | --- | --- | --- |
| R3_(396-455), fragment of RPAP3 (from UniProt Q9H6T3 396-455) (domain or fragment) | binds | – | – |
| R1R2 complex (RUVBL1/RUVBL2) of the co-expression assays (from UniProt Q9Y265;Q9Y230) | – | binds | binds |
